Assay results as given in publication PMC11389410.
Results are given in words; binding and its absence hold for the method and conditions named. In cells and extracts the contact can be indirect. Some binding calls cover weakened binding; strength is not graded here. For some of these results: Where a sequence is shown, tags or fusion partners need not be part of it.

Tests used:
[1] = molecular target: T1, TRAF6, endogenous in colonic tissue (not stated (colonic tissue of mice or of patients)) (UniProt P70196); experiment: co-IP; colonic tissue homogenised in RIPA lysis buffer with 1% PMSF, lysed in NP-40 lysis buffer
T1 sequence: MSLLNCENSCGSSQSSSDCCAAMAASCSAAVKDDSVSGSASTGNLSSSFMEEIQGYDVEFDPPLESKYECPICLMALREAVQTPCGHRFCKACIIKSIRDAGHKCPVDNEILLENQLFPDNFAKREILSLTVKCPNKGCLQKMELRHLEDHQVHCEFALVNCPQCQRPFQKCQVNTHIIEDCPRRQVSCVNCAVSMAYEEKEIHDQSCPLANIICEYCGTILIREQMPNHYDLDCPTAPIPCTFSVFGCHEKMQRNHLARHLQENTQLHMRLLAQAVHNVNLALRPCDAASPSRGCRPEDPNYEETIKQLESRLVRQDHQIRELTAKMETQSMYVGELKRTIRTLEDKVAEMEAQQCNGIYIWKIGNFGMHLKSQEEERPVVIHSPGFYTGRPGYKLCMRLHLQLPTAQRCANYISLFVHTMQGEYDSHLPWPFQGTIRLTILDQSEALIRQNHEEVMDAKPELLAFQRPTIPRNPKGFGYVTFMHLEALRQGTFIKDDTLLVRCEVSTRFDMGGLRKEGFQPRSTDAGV

[2] = molecular target: T2, Flag-tagged TRAF6 (aa 260–522) (UniProt Q9Y4K3); experiment: co-IP; HEK293T cells cotransfected with tagged plasmids; NP-40 lysis buffer (20 mM Tris-HCl pH 8.0, 1 mM EDTA, 1% NP-40, 150 mM NaCl); immunoblotting with the indicated antibodies
T2 sequence: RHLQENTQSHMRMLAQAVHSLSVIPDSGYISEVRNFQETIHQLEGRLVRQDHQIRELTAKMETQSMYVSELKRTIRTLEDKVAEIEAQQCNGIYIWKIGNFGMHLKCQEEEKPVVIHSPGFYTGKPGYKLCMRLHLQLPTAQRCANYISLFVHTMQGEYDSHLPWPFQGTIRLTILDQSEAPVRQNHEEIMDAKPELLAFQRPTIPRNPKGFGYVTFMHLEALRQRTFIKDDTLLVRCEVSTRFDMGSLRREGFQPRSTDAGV

[3] = molecular target: T3, Flag-tagged TRAF6 (aa 110–522) (UniProt Q9Y4K3); experiment: as above
T3 sequence: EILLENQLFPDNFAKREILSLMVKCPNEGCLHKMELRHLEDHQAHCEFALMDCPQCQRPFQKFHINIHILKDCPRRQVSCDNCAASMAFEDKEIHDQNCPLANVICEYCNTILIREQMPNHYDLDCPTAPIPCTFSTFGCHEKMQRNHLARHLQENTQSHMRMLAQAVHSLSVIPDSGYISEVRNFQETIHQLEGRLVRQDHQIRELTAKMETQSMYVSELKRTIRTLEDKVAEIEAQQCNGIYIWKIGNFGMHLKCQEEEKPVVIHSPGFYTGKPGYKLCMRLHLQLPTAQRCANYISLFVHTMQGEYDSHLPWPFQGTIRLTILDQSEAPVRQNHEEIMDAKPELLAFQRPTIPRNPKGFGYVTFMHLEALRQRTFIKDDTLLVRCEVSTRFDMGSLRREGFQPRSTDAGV

[4] = molecular target: T4, Flag-tagged TRAF6 (aa 1–349) (UniProt Q9Y4K3); experiment: as above
T4 sequence: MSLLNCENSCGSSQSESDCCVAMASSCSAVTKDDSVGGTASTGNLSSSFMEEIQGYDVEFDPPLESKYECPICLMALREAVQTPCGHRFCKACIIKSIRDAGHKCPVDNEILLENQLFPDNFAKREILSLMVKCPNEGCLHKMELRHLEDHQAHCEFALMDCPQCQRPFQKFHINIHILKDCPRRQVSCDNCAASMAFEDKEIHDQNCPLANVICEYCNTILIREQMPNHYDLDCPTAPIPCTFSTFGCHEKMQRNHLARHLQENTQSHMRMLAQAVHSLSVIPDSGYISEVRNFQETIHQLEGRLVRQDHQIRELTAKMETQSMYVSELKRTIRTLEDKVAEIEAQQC

B1: ASB3, endogenous in colonic tissue (protein, UniProt Q9WV72 1-525)
chain: MDFTEAYSDTCSTVGLAAREGNVKILRKLLKKGRSVDVADNRGWMPIHEAAYHNAVECLQMLIHTDSSENYIKAKTFEGFCALHLAVSQGHWKITQILLEAGADPNETTLEETTPLFLAVESGRIDVLKLLLQHGANVNGSHSMSGWNSLHQASFQGNAETIRLLLKQGADRECQDDFGITPLFVAAQYGKLESMSILISSGANVNCQALDKATPLFIAAQEGHTKCVELLLSSGADPDLYCNEDNWQLPIHAAAQMGHTETLDLLIPRTNRACDTGPDKVSPVYSAVFGGREECLEMLLQNGYSPDAQMCLVFGFSSPLCMAFQKDCDFSGIVNILLKYGAQLNELHLAYCLKYEKFSMFCSFLKKGSLMVPWNHTSEFISYAVKAQTKYKAWLPHLLLAGFDPLILLCSSSWVDSASDDILIFTLEFSNWKRLPSAVEKMLSVRANSSWALQQHLASVPSLTHLCRLEIRASLKAEHLHSDIFIHQLPLPRSLQNYLLYEEVLRMNEILEPAANQDGETSKAT
[1]
  binding: binds

B2: HA-tagged ASB3 (ankyrin repeat and SOCS box-containing protein 3) (protein, UniProt Q9Y575 1-518)
chain: MDFTEAYADTCSTVGLAAREGNVKVLRKLLKKGRSVDVADNRGWMPIHEAAYHNSVECLQMLINADSSENYIKMKTFEGFCALHLAASQGHWKIVQILLEAGADPNATTLEETTPLFLAVENGQIDVLRLLLQHGANVNGSHSMCGWNSLHQASFQENAEIIKLLLRKGANKECQDDFGITPLFVAAQYGKLESLSILISSGANVNCQALDKATPLFIAAQEGHTKCVELLLSSGADPDLYCNEDSWQLPIHAAAQMGHTKILDLLIPLTNRACDTGLNKVSPVYSAVFGGHEDCLEILLRNGYSPDAQACLVFGFSSPVCMAFQKDCEFFGIVNILLKYGAQINELHLAYCLKYEKFSIFRYFLRKGCSLGPWNHIYEFVNHAIKAQAKYKEWLPHLLVAGFDPLILLCNSWIDSVSIDTLIFTLEFTNWKTLAPAVERMLSARASNAWILQQHIATVPSLTHLCRLEIRSSLKSERLRSDSYISQLPLPRSLHNYLLYEDVLRMYEVPELAAIQDG
[2]
  binding: binds
[3]
  binding: binds
[4]
  binding: no binding
